These are yes or no findings as the source states them, for the method shown. In cells and extracts the contact can be indirect. Here binding means that the protein was enriched with, or labelled near, the bait; the list need not be complete. No binding means not detected with the bait.
Target: AGIA-AirID-CRBN-WT (UniProt Q96SW2)
Test: proximity labelling; look-up of CRL4 components and known CRBN interactors in the LC-MS/MS analyses of AirID-CRBN cells (Supplementary Fig. 7); cell lines not given

Sequences of proteins named here, by UniProt entry; tags and fusion partners are left off. Residues count along the entry.
UniProt P35613, residues 22-385: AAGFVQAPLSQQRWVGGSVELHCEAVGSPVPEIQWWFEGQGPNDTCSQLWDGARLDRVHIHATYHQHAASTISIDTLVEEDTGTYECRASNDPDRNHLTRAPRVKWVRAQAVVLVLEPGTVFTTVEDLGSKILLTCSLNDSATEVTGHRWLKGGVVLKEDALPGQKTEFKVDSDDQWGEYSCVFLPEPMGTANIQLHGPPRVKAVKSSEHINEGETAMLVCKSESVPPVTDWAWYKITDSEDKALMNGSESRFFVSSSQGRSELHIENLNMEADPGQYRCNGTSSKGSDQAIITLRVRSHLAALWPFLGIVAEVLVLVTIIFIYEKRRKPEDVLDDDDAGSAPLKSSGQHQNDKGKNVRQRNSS
UniProt Q13620: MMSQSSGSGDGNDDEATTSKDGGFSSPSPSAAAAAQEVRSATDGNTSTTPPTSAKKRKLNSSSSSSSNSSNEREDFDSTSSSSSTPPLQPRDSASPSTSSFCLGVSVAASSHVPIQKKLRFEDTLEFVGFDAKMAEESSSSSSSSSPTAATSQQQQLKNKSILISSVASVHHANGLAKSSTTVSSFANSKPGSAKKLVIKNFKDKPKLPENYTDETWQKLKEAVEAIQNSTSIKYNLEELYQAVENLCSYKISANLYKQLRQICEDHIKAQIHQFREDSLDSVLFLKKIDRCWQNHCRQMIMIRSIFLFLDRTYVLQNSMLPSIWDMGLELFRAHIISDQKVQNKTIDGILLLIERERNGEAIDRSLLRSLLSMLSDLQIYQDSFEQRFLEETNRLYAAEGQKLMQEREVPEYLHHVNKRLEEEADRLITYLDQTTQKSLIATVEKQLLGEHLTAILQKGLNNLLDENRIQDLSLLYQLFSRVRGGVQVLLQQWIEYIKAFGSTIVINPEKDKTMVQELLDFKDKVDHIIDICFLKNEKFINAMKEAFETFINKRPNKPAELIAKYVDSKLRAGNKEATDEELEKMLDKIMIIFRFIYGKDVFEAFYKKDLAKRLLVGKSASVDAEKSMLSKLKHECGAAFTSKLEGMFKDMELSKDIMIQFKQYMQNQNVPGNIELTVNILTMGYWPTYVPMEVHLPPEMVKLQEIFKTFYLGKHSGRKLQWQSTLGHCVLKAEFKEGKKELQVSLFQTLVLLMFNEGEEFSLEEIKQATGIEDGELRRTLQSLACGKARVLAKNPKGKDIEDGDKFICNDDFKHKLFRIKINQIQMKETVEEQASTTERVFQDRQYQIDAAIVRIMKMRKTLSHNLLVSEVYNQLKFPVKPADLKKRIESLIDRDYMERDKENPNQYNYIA
UniProt Q13619: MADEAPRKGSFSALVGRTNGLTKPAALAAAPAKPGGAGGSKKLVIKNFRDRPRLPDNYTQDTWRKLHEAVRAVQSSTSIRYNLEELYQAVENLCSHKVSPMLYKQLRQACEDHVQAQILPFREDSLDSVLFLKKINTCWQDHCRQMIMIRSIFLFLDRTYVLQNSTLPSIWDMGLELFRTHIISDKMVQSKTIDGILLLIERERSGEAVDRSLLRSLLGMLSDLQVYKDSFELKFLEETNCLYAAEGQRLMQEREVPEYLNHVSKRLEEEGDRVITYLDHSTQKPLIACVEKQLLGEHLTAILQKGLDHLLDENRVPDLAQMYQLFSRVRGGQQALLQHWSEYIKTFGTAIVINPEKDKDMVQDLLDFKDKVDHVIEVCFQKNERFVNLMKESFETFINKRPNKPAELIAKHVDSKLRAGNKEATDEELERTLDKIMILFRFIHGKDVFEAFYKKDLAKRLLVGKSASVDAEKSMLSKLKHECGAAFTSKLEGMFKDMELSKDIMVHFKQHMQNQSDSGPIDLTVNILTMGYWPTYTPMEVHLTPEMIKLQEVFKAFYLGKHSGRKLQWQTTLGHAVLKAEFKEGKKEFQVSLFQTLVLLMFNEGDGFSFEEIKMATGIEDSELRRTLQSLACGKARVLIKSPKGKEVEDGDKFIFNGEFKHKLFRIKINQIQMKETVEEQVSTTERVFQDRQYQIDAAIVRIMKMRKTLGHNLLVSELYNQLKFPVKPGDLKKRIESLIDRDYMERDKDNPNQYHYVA
UniProt P61077: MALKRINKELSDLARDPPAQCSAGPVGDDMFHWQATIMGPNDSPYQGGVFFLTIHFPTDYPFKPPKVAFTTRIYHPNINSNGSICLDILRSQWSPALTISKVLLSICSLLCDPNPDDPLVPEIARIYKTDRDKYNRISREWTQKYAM
UniProt P61081: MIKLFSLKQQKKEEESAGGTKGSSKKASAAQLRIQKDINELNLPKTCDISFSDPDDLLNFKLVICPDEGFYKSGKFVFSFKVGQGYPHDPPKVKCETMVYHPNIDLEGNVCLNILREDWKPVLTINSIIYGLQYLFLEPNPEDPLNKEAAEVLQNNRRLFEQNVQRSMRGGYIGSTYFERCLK

Substance | binding
CD147 (from UniProt P35613 22-385) | binds
SQSTM1 (from UniProt Q13501 1-440) | binds
TP53 (from UniProt P04637 1-393) | binds
CUL4B (from UniProt Q13620 1-913) | binds

Next, values leading:

binding | Substance
binds | CUL4A (from UniProt Q13619 1-759)
no binding | UBE2D3 (from UniProt P61077 1-147)
binds | UBC12 (from UniProt P61081 1-183)
